Test results: the supplement of paper PMC8728848
The other results are listed elsewhere or left out.

Key:
Assay in all cases: glycan array binding signal (z-score within array); higher = stronger binding
Conditions in all cases: glycan notation: IUPAC condensed, linker removed
Gal(a1-3)Gal(b1-3)GlcNAc = target: Gal(a1-3)Gal(b1-3)GlcNAc
Outline: (§1)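 Arrays were curated from the Consortium for Functional Glycomics database, 3228 in total, and kept only where the protein sequence was available. Binding is expressed as a within-array Z-score. This score was averaged across arrays of the same protein sequence at different concentrations or buffers and across linkers, and negative values can be read as non-binding.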

[1] = target: Gal(a1-3)Gal(b1-3)GlcNAc(b1-2)Man
Outline: as §1

[2] = target: Gal(a1-3)Gal(b1-3)GlcNAc(b1-2)Man(a1-3)[Gal(a1-3)Gal(b1-3)GlcNAc(b1-2)Man(a1-6)]Man(b1-4)GlcNAc(b1-4)GlcNAc
Outline: as §1

[3] = target: Gal(a1-3)Gal(b1-3)GlcNAc(b1-3)GalNAc
Outline: as §1

[4] = target: Gal(a1-3)Gal(b1-3)GlcNAc(b1-6)GalNAc
Outline: as §1

[5] = target: Gal(a1-3)Gal(b1-3)[Fuc(a1-4)]GlcNAc(b1-2)Man(a1-3)[Gal(a1-3)Gal(b1-3)[Fuc(a1-4)]GlcNAc(b1-2)Man(a1-6)]Man(b1-4)GlcNAc(b1-4)GlcNAc
Outline: as §1

Gal(a1-3)Gal(b1-4)Glc = target: Gal(a1-3)Gal(b1-4)Glc
Outline: as §1

Gal(a1-3)Gal(b1-4)GlcNAc = target: Gal(a1-3)Gal(b1-4)GlcNAc
Outline: as §1

[6] = target: Gal(a1-3)Gal(b1-4)GlcNAc(b1-2)Man
Outline: as §1

[7] = target: Gal(a1-3)Gal(b1-4)GlcNAc(b1-2)Man(a1-3)[Gal(a1-3)Gal(b1-4)GlcNAc(b1-2)Man(a1-6)]Man(b1-4)GlcNAc(b1-4)GlcNAc
Outline: as §1

[8] = target: Gal(a1-3)Gal(b1-4)GlcNAc(b1-3)GalNAc
Outline: as §1

[9] = target: Gal(a1-3)Gal(b1-4)GlcNAc(b1-6)GalNAc
Outline: as §1

[10] = target: Gal(a1-3)Gal(b1-4)[Fuc(a1-3)]GlcNAc
Outline: as §1

[11] = target: Gal(a1-3)Gal(b1-4)[Fuc(a1-3)]GlcNAc(b1-2)Man(a1-3)[Gal(a1-3)Gal(b1-4)[Fuc(a1-3)]GlcNAc(b1-2)Man(a1-6)]Man(b1-4)GlcNAc(b1-4)GlcNAc
Outline: as §1

Gal(a1-3)GalNAc = target: Gal(a1-3)GalNAc
Outline: as §1

[12] = target: Gal(a1-3)[Gal(a1-4)]Gal(b1-4)GlcNAc
Outline: as §1

[13] = target: Gal(a1-4)Gal(b1-3)GlcNAc(b1-2)Man(a1-3)[Gal(a1-4)Gal(b1-3)GlcNAc(b1-2)Man(a1-6)]Man(b1-4)GlcNAc(b1-4)GlcNAc
Outline: as §1

Gal(a1-4)Gal(b1-4)Glc = target: Gal(a1-4)Gal(b1-4)Glc
Outline: as §1

Gal(a1-4)Gal(b1-4)GlcNAc = target: Gal(a1-4)Gal(b1-4)GlcNAc
Outline: as §1

[14] = target: Gal(a1-4)Gal(b1-4)GlcNAc(b1-2)Man(a1-3)[Gal(a1-4)Gal(b1-4)GlcNAc(b1-2)Man(a1-6)]Man(b1-4)GlcNAc(b1-4)GlcNAc
Outline: as §1

[15] = target: Gal(a1-4)Gal(b1-4)GlcNAc(b1-3)Gal(b1-4)Glc
Outline: as §1

Gal(a1-4)GlcNAc = target: Gal(a1-4)GlcNAc
Outline: as §1

Gal(a1-6)Glc = target: Gal(a1-6)Glc
Outline: as §1

Gal(b1-2)Gal = target: Gal(b1-2)Gal
Outline: as §1

Gal(b1-3)Gal = target: Gal(b1-3)Gal
Outline: as §1

Gal(b1-3)Gal(b1-4)GlcNAc = target: Gal(b1-3)Gal(b1-4)GlcNAc
Outline: as §1

Gal(b1-3)GalNAc = target: Gal(b1-3)GalNAc
Outline: as §1

[16] = target: Gal(b1-3)GalNAc(a1-3)[Fuc(a1-2)]Gal(b1-4)Glc
Outline: as §1

[17] = target: Gal(b1-3)GalNAc(a1-3)[Fuc(a1-2)]Gal(b1-4)GlcNAc
Outline: as §1

Gal(b1-3)GalNAc(b1-3)Gal = target: Gal(b1-3)GalNAc(b1-3)Gal
Outline: as §1

[18] = target: Gal(b1-3)GalNAc(b1-3)Gal(a1-4)Gal(b1-4)Glc
Outline: as §1

[19] = target: Gal(b1-3)GalNAc(b1-4)Gal(b1-4)Glc
Outline: as §1

[20] = target: Gal(b1-3)GalNAc(b1-4)[Neu5Ac(a2-3)]Gal(b1-4)Glc
Outline: as §1

Gal(b1-3)GlcNAc = target: Gal(b1-3)GlcNAc
Outline: as §1

[21] = target: Gal(b1-3)GlcNAc(a1-3)Gal(b1-4)GlcNAc
Outline: as §1

[22] = target: Gal(b1-3)GlcNAc(a1-6)Gal(b1-4)GlcNAc
Outline: as §1

Gal(b1-3)GlcNAc(b1-2)Man = target: Gal(b1-3)GlcNAc(b1-2)Man
Outline: as §1

[23] = target: Gal(b1-3)GlcNAc(b1-2)Man(a1-3)[Gal(b1-3)GlcNAc(b1-2)Man(a1-6)]Man(b1-4)GlcNAc(b1-4)GlcNAc
Outline: as §1

B1: SP15308F-bth-333-19-333 (Bacteroides thetaiotaomicron) (protein)
chain: SCNNEWESEQYVQMVSFKAPVNAQGVTPIYIRYKPEGKVTYQLPLIVSGSTMNSKDLNVHVGLDLDTLDVLNVEHFGSRKELFFKPLENKYYEFPETVQIPAGECTSLLPIDFALKDLDQVDKWVLPLAIQSNDPSHNYQANPRKFYRRAMLRISPFNDYSGQYSATAYKVYFKGNEKEAIVPEYHTSYVIDDKTIFFYAGLIDIDRLDRKYYKIKFEFTEEKIDLQTRKLKISSDNEDINLVVKGQPSYTVEEEMDATRPYLKHIYVTINNLEYEFTDYTSVPGYPLEYVVKGSLTMERKINTQIPDEDQAIEW
Gal(a1-3)Gal(b1-3)GlcNAc
  glycan array binding signal (z-score): 0.565
[1]
  glycan array binding signal (z-score): 0.13
[2]
  glycan array binding signal (z-score): -0.038
[3]
  glycan array binding signal (z-score): -1.31
[4]
  glycan array binding signal (z-score): -1.04
[5]
  glycan array binding signal (z-score): -0.629
Gal(a1-3)Gal(b1-4)Glc
  glycan array binding signal (z-score): -0.925
Gal(a1-3)Gal(b1-4)GlcNAc
  glycan array binding signal (z-score): -1.39
[6]
  glycan array binding signal (z-score): -0.999
[7]
  glycan array binding signal (z-score): -0.462
[8]
  glycan array binding signal (z-score): -0.383
[9]
  glycan array binding signal (z-score): -0.976
[10]
  glycan array binding signal (z-score): -1.59
[11]
  glycan array binding signal (z-score): -0.37
Gal(a1-3)GalNAc
  glycan array binding signal (z-score): 0.714
[12]
  glycan array binding signal (z-score): 1.57
[13]
  glycan array binding signal (z-score): -1.15
Gal(a1-4)Gal(b1-4)Glc
  glycan array binding signal (z-score): -0.452
Gal(a1-4)Gal(b1-4)GlcNAc
  glycan array binding signal (z-score): 1.28
[14]
  glycan array binding signal (z-score): 1.48
[15]
  glycan array binding signal (z-score): 0.018
Gal(a1-4)GlcNAc
  glycan array binding signal (z-score): -1.09
Gal(a1-6)Glc
  glycan array binding signal (z-score): -1
Gal(b1-2)Gal
  glycan array binding signal (z-score): 0.151
Gal(b1-3)Gal
  glycan array binding signal (z-score): -0.89
Gal(b1-3)Gal(b1-4)GlcNAc
  glycan array binding signal (z-score): -0.489
Gal(b1-3)GalNAc
  glycan array binding signal (z-score): -0.555
[16]
  glycan array binding signal (z-score): 0.719
[17]
  glycan array binding signal (z-score): -0.913
Gal(b1-3)GalNAc(b1-3)Gal
  glycan array binding signal (z-score): 1.6
[18]
  glycan array binding signal (z-score): -0.601
[19]
  glycan array binding signal (z-score): 0.87
[20]
  glycan array binding signal (z-score): -0.243
Gal(b1-3)GlcNAc
  glycan array binding signal (z-score): 0.065
[21]
  glycan array binding signal (z-score): -0.961
[22]
  glycan array binding signal (z-score): -0.171
Gal(b1-3)GlcNAc(b1-2)Man
  glycan array binding signal (z-score): 1.87
[23]
  glycan array binding signal (z-score): -0.275
